For five molecules, binding results are on record in patent US20230212239A1, “INHIBITORS OF CBL AUTOINHIBITION AND RELATED METHODS” (THE HOSPITAL FOR SICK CHILDREN, priority 2020, published 2023).

The target of test [1] is CBL (47-357), co-expressed from pETDuet-1 MCS2 (UniProt P22681). Kind of test: Ni-NTA co-purification, low salt, Coomassie SDS-PAGE (FIG. 5E).
The target is the same in test [2]. Kind of test: Ni-NTA co-purification, low salt (refers back to FIG. 5E).
Test [3] has the same target. Description: Ni-NTA co-purification from Duet co-expression, high salt, Coomassie SDS-PAGE.
Test [4] shares this target. Description: Ni-NTA co-purification, low salt, Coomassie SDS-PAGE (FIG. 1B).
For test [5] the target is unchanged. Kind of test: Ni-NTA co-purification from Duet-His-mSLAP-CBL, low salt, Coomassie SDS-PAGE (FIG. 5F).

No constants are given. Whether binding was seen depends on the method and setting. In cells and extracts the contact can be indirect. Some entries that bind do so weakly or less than the wild type. Where a sequence is shown, tags or fusion partners need not be part of it.

B1: Trx-His(6)-Δlinker-hSLAP2 I249W (protein, not shown: large carriers; small tags and cut ends)
chain: EAERSKATAVALGSFPAGGPAELSLRLGEPLTIVSEDGDWWTVLSEVSGREYNIPSVHVAKVSHGWLYEGLSREKAEELLLLPGNPGGAFLIRESQTRRGSYSLSVRLSRPASWDRIRHYRIHCLDNGWLYISPRLTFPSLQALVDHYSELADDICCLLKEPCVLQRAGPLPGKDIPLPVTVQRTPLNWKELDSSLLFSEAATGEESLLSEGLRESLSFYWSLNDEAVSLDDA
In the case of B1, the binding result in test [1] and in test [2] was “binds” throughout.

B2: Trx-His(6)-Δlinker-hSLAP2 S246/250E (protein, not shown: large carriers; small tags and cut ends)
chain: EAERSKATAVALGSFPAGGPAELSLRLGEPLTIVSEDGDWWTVLSEVSGREYNIPSVHVAKVSHGWLYEGLSREKAEELLLLPGNPGGAFLIRESQTRRGSYSLSVRLSRPASWDRIRHYRIHCLDNGWLYISPRLTFPSLQALVDHYSELADDICCLLKEPCVLQRAGPLPGKDIPLPVTVQRTPLNWKELDSSLLFSEAATGEESLLSEGLRESLEFYIELNDEAVSLDDA
On to B2, for which the binding result in test [1] and in test [2] was “binds” each time.

B3: Trx-His(6)-Δlinker-hSLAP2 R242A (protein, not shown: large carriers; small tags and cut ends)
chain: EAERSKATAVALGSFPAGGPAELSLRLGEPLTIVSEDGDWWTVLSEVSGREYNIPSVHVAKVSHGWLYEGLSREKAEELLLLPGNPGGAFLIRESQTRRGSYSLSVRLSRPASWDRIRHYRIHCLDNGWLYISPRLTFPSLQALVDHYSELADDICCLLKEPCVLQRAGPLPGKDIPLPVTVQRTPLNWKELDSSLLFSEAATGEESLLSEGLAESLSFYISLNDEAVSLDDA
For B3, the binding result in test [1] and in test [2] was “binds” throughout.

B4: Trx-His(6)-Δlinker-hSLAP2 (human SLAP2 29-261) (protein, not shown: large carriers; small tags and cut ends)
chain: EAERSKATAVALGSFPAGGPAELSLRLGEPLTIVSEDGDWWTVLSEVSGREYNIPSVHVAKVSHGWLYEGLSREKAEELLLLPGNPGGAFLIRESQTRRGSYSLSVRLSRPASWDRIRHYRIHCLDNGWLYISPRLTFPSLQALVDHYSELADDICCLLKEPCVLQRAGPLPGKDIPLPVTVQRTPLNWKELDSSLLFSEAATGEESLLSEGLRESLSFYISLNDEAVSLDDA
Regarding B4, the binding result in test [3] and in test [4] was “binds” in each case.

B5: Trx-His(6)-mSLAP (mouse SLAP 19-254) (protein, UniProt Q60898 19-254, looked up, not shown: large carriers)
chain: SEGLESDFLAVLTDYPSPDISPPIFRRGEKLRVISDEGGWWKAISLSTGRESYIPGICVARVYHGWLFEGLGRDKAEELLQLPDTKIGSFMIRESETKKGFYSLSVRHRQVKHYRIFRLPNNWYYISPRLTFQCLEDLVTHYSEVADGLCCVLTTPCLAQNIPAPTSHPSPCTSPGSPVTLRQKTFDWKRVSRLQEGSEGAENPLRVDESLFSYGLRESIASYLSLTGDDSSSFDR
In the case of B5, the binding entry in test [5] was “binds”.
